Literature values in article PMC8646516 (CPT: Pharmacometrics & Systems Pharmacology, 2021).

Tested on: endothelial barrier
Settings: cited from earlier work

Question: For Cc1ccc(NC(=O)c2ccc(CN3CCN(C)CC3)cc2)cc1Nc1nccc(-c2cccnc2)n1 [imatinib], which “IC50 for endothelial barrier protection, total concentration” value is on record?
Answer: The value was 1.9 µg/mL.
